## Percent effect of library compounds

From ChEMBL document CHEMBL3988442, “University of Dundee, Small-Polar-MMV Screening Library” (2021).

Mtb cholesterol medium: 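Whole-cell growth test on Mycobacterium tuberculosis, read after 4 days in a medium based on cholesterol and the lipid DPPC; the read-out is not stated. Tested at 50 µM. Higher reads as more growth inhibition (inferred: compounds with an IC50 in retests scored well above the rest). Of about 69,000 compounds tested this way, about 370 (0.54%) reached 50% or more in at least one test.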
Mtb glucose medium: 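Growth of Mycobacterium tuberculosis over 3 days (7H9 medium with glucose and tyloxapol); the read-out is not stated. Tested at 50 µM. The record gives no direction; compounds that gave an IC50 in retests scored well above the rest, so higher reads as more growth inhibition. About 69,000 compounds were tested under these conditions; 1.1% (about 760) showed 50% or more at least once.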

Values are the deposited “Percent Effect”, in %.
The controls that fix the scale are not given in the record; negative values are as filed.
This is an unselected part of the compounds tested.
Two or more numbers in one place are separate tests of the same structure; such repeats can differ widely.

For CN1N=C(C(=O)N2CCN(c3ncccc3Cl)CC2)CCC1=O the result was Mtb cholesterol medium: 2.661%; Mtb glucose medium: -7.01%.
For COc1ccccc1C(=O)Nc1c(F)c(C(=O)NC2CCCC2)nn1C the result was Mtb cholesterol medium: 5.164%; Mtb glucose medium: 8.399%.
For CC1(C(=O)NCCc2ccc(F)cc2)CCOCC1 the result was Mtb cholesterol medium: 1.728%; Mtb glucose medium: 19.34%.
For Nc1nc2c(c(N3CCCC3)n1)CCN(Cc1ccccn1)CC2 the result was Mtb cholesterol medium: -16.62%; Mtb glucose medium: -29.22%.
For Cc1nn(C)c(N(C)C)c1CNCCC(=O)NC1CCCCC1 the result was Mtb cholesterol medium: -8.026%; Mtb glucose medium: -24.41%.
For COc1ccccc1N1CCN(C(=O)CCn2nnnc2C)CC1(C)C the result was Mtb cholesterol medium: 2.141%; Mtb glucose medium: 2.54%.
For O=C(Cn1cccn1)NCC1(c2ccccc2)CC1 the result was Mtb cholesterol medium: -19.73%; Mtb glucose medium: -3.786%.
For CCOc1ncccc1CNC(=O)Nc1cc(C)nn1C the result was Mtb cholesterol medium: -22.49%; Mtb glucose medium: -36.02%.
For O=C(O)[C@H]1OCC(=O)N(Cc2cccc(F)c2)[C@@H]1c1ccc(Cl)cc1 the result was Mtb cholesterol medium: 3.769%; Mtb glucose medium: 12.43%.
For CN(C)S(=O)(=O)NC1CCCc2c1cnn2-c1ccc(C(C)(C)C)cc1 (stereo not drawn) the result was Mtb cholesterol medium: 6.103%; Mtb glucose medium: 6.814%.
For Cc1ccc(NC2CCN(C(=O)C(C(C)C)n3cncn3)CC2)nn1 (stereo not drawn) the result was Mtb cholesterol medium: 3.242%; Mtb glucose medium: 7.513% and -5.027%.
For O=C(COc1coc(CN2CCSCC2)cc1=O)c1ccccc1 the result was Mtb cholesterol medium: -0.9794%; Mtb glucose medium: 21.6%.
For CN(Cc1nc(C(F)(F)F)cs1)C(=O)CCc1ccccn1 the result was Mtb cholesterol medium: -0.2657% and -2.58%; Mtb glucose medium: -4.683%.
For CC(=O)c1nn(-c2cccc(Cl)c2)c(C)c1C(C)=O the result was Mtb cholesterol medium: 29.55%; Mtb glucose medium: 17.84% and 25.27%.
For CCCC(=O)Nc1cnn(CC(=O)Nc2ccc(SC)cc2)c1 the result was Mtb cholesterol medium: -0.1984%; Mtb glucose medium: -19.81%.
For O=C(O)C(F)(F)F.[H][C@@]12CCN(CC3CCOCC3)[C@@]1([H])CCN2C(=O)c1cccc(C#N)c1 the result was Mtb cholesterol medium: -29.53% and -5.773%; Mtb glucose medium: -42.38%.
For Cc1ncc2c(n1)CCN(C(C(N)=O)c1ccccc1)C2 (stereo not drawn) the result was Mtb cholesterol medium: -10.94%; Mtb glucose medium: -5.966%.
For CN(CCc1ccc2c(c1)CCO2)C1CCS(=O)(=O)CC1 the result was Mtb cholesterol medium: 2.479%; Mtb glucose medium: -19.82%.
For CN(Cc1cc2n(n1)CCCNC2)Cc1cc(-c2ccncc2)no1 the result was Mtb cholesterol medium: 17.6%; Mtb glucose medium: 6.779%.
For CCC(C)(NCC(=O)NC(=O)NC)c1nc(C)cs1 (stereo not drawn) the result was Mtb cholesterol medium: 7.929%; Mtb glucose medium: 5.44% and -1.597%.
For O=C(c1ccc(-c2nc[nH]n2)cc1)N1CC[C@H](CO)[C@@H](O)C1 the result was Mtb cholesterol medium: -21.06%; Mtb glucose medium: 0.4759%.
For CCCNC(=O)c1cc(C(C)C)nc(N2CCCCC2)n1 the result was Mtb cholesterol medium: -10.6%; Mtb glucose medium: -10.78%.
For CN(CCO)CC1COCCN1C(=O)C1(c2cccs2)CCCC1.O=CO (stereo not drawn) the result was Mtb cholesterol medium: 10.58%; Mtb glucose medium: 15.84%.
For Cc1cc(C)cc(N2CC(c3nnc(N)s3)CC2=O)c1 (stereo not drawn) the result was Mtb cholesterol medium: 13.31%; Mtb glucose medium: 14.98%.
For Cc1ccc(C)c(OC(C)C(=O)Nc2cccnc2)c1 (stereo not drawn) the result was Mtb cholesterol medium: 19.9%; Mtb glucose medium: -9.9%.
For Cc1cc(C(=O)NC2CCc3c(ccc(=O)n3CCN(C)C)C2)no1 (stereo not drawn) the result was Mtb cholesterol medium: -3.568%; Mtb glucose medium: -0.9617%.
For Clc1ccccc1C1(c2ccnc(-c3ccncc3)n2)CCNCC1 the result was Mtb cholesterol medium: -7.974%; Mtb glucose medium: 20.25%.
For COCC(=O)N1CCCCC1c1ccnc(Nc2cnccn2)n1 (stereo not drawn) the result was Mtb cholesterol medium: -7.475%; Mtb glucose medium: -9.211%.
For Cc1cccc(C(=O)N(CCCO)S(=O)(=O)c2cccs2)c1 the result was Mtb cholesterol medium: 3.304%; Mtb glucose medium: -5.039%.
For CCc1nc2n(n1)CC(NCCc1cccs1)CC2 (stereo not drawn) the result was Mtb cholesterol medium: 6.353%; Mtb glucose medium: 2.425% and -2.963%.
For [H][C@@]12C[C@H](C(=O)N(C)C)[C@@]([H])(CN(S(=O)(=O)Cc3ccccc3)C1)O2 the result was Mtb cholesterol medium: 2.749%; Mtb glucose medium: 15.34%.
For CCCNC(=O)N1CCN(Cc2cc(C)no2)CC1 the result was Mtb cholesterol medium: 5.898%; Mtb glucose medium: 6.459%.
For COCCN(C)C(=O)c1nc2c(s1)CCCN2C the result was Mtb cholesterol medium: -18.01%; Mtb glucose medium: -2.209% and 6.433%.
For O=C(O)C(F)(F)F.O=C1COC2(CCN(Cc3ccsc3)CC2)CN1 the result was Mtb cholesterol medium: -19%; Mtb glucose medium: -8.926%.
For COC(=O)c1cccc(C(=O)N(CCC#N)CC(C)(C)C)c1 the result was Mtb cholesterol medium: 3.947%; Mtb glucose medium: 6.49%.
For O=S1(=O)COCCN1Cc1ccc(Cl)c(Cl)c1 the result was Mtb cholesterol medium: 10.45%; Mtb glucose medium: 17.02%.
For CC(NC(=O)NCc1ccccc1F)(C(=O)O)c1ccco1 (stereo not drawn) the result was Mtb cholesterol medium: -11.65%; Mtb glucose medium: 6.612%.
For O=C(CCn1c(C(F)(F)F)cc2cccnc21)NC1CCCC1 the result was Mtb cholesterol medium: 14.45%; Mtb glucose medium: 16.92%.
For Cc1noc(C)c1C(=O)N1CC[C@]2(C[C@@H](OCc3cccnc3)CO2)C1.O=C(O)C(F)(F)F the result was Mtb cholesterol medium: 17.3% and 1.352%; Mtb glucose medium: 4.063%.
For [H][C@]12CN(CC(=O)N(C)C)C(=O)[C@@]1([H])CN(c1cc(OC)ncn1)C2 the result was Mtb cholesterol medium: -30.38%; Mtb glucose medium: -60.79% and -8.918%.
For O=C(Cc1cccs1)N1CCc2nnc(COc3cncnc3)n2CC1 the result was Mtb cholesterol medium: -26.23%; Mtb glucose medium: -0.39% and 7.117%.
For CS(=O)(=O)Cc1nc(CN2CCOc3ccccc3C2)cs1 the result was Mtb cholesterol medium: -7.232%; Mtb glucose medium: 4.935%.
For O=C(NCc1cccnc1N1CCCCC1)c1ccc2cc[nH]c2c1 the result was Mtb cholesterol medium: 4.438%; Mtb glucose medium: 41.85%.
For Cc1ccc(C(=O)NCCS(=O)(=O)N2CCSCC2)n1C the result was Mtb cholesterol medium: -6.248%; Mtb glucose medium: 19.81%.
For Cc1ncsc1CCN(C)C(=O)CN1CC2(CCNCC2)OC1=O the result was Mtb cholesterol medium: -27.55%; Mtb glucose medium: -7.964%.
For CN(C)Cc1cn2c(n1)CN(C1CCOC1)CC2 (stereo not drawn) the result was Mtb cholesterol medium: -20.26%; Mtb glucose medium: -22.91%.
For COc1c(CNCc2ccc(N(C)C)nc2)c(C(C)C)nn1C the result was Mtb cholesterol medium: -7.218%; Mtb glucose medium: -20.68%.
For COCCCS(=O)(=O)N1CCN(Cc2cccn2C)CC1 the result was Mtb cholesterol medium: -67.03%; Mtb glucose medium: -52.21% and 0.4772%.

The first 4 entries again:

{"structure": "CN1N=C(C(=O)N2CCN(c3ncccc3Cl)CC2)CCC1=O", "Mtb cholesterol medium": 2.661, "Mtb glucose medium": -7.01}
{"structure": "COc1ccccc1C(=O)Nc1c(F)c(C(=O)NC2CCCC2)nn1C", "Mtb cholesterol medium": 5.164, "Mtb glucose medium": 8.399}
{"structure": "CC1(C(=O)NCCc2ccc(F)cc2)CCOCC1", "Mtb cholesterol medium": 1.728, "Mtb glucose medium": 19.34}
{"structure": "Nc1nc2c(c(N3CCCC3)n1)CCN(Cc1ccccn1)CC2", "Mtb cholesterol medium": -16.62, "Mtb glucose medium": -29.22}